For one molecule, binding results are on record in PMC10344785.

Results are given in words; binding and its absence hold for the method and conditions named. In cells and extracts the contact can be indirect. Binding calls can cover weak binding; strength is not graded here.

The test addresses Bmal1 with deletion of the carboxy (C)-terminal transactivation domain (TAD) region (mouse). As to the kind of experiment: co-IP; Bmal1 immunoprecipitates from total extracts of HEK293T cells expressing His-tagged mouse Bmal1 truncated constructs; blot for CLOCK and VPS15.

B1: CLOCK (in Bmal1 immunoprecipitates of Fig. 4i) (protein, UniProt O15516 1-846)
chain: MLFTVSCSKMSSIVDRDDSSIFDGLVEEDDKDKAKRVSRNKSEKKRRDQFNVLIKELGSMLPGNARKMDKSTVLQKSIDFLRKHKEITAQSDASEIRQDWKPTFLSNEEFTQLMLEALDGFFLAIMTDGSIIYVSESVTSLLEHLPSDLVDQSIFNFIPEGEHSEVYKILSTHLLESDSLTPEYLKSKNQLEFCCHMLRGTIDPKEPSTYEYVKFIGNFKSLNSVSSSAHNGFEGTIQRTHRPSYEDRVCFVATVRLATPQFIKEMCTVEEPNEEFTSRHSLEWKFLFLDHRAPPIIGYLPFEVLGTSGYDYYHVDDLENLAKCHEHLMQYGKGKSCYYRFLTKGQQWIWLQTHYYITYHQWNSRPEFIVCTHTVVSYAEVRAERRRELGIEESLPETAADKSQDSGSDNRINTVSLKEALERFDHSPTPSASSRSSRKSSHTAVSDPSSTPTKIPTDTSTPPRQHLPAHEKMVQRRSSFSSQSINSQSVGSSLTQPVMSQATNLPIPQGMSQFQFSAQLGAMQHLKDQLEQRTRMIEANIHRQQEELRKIQEQLQMVHGQGLQMFLQQSNPGLNFGSVQLSSGNSSNIQQLAPINMQGQVVPTNQIQSGMNTGHIGTTQHMIQQQTLQSTSTQSQQNVLSGHSQQTSLPSQTQSTLTAPLYNTMVISQPAAGSMVQIPSSMPQNSTQSAAVTTFTQDRQIRFSQGQQLVTKLVTAPVACGAVMVPSTMLMGQVVTAYPTFATQQQQSQTLSVTQQQQQQSSQEQQLTSVQQPSQAQLTQPPQQFLQTSRLLHGNPSTQLILSAAFPLQQSTFPQSHHQQHQSQQQQQLSRHRTDSLPDPSKVQPQ
In the case of B1, the binding entry is listed as “binds”.
